In publication PMC8834516:

T1: Transglutaminase-2 (mouse (endogenous in mouse brain)) (UniProt P21981)
T1 sequence: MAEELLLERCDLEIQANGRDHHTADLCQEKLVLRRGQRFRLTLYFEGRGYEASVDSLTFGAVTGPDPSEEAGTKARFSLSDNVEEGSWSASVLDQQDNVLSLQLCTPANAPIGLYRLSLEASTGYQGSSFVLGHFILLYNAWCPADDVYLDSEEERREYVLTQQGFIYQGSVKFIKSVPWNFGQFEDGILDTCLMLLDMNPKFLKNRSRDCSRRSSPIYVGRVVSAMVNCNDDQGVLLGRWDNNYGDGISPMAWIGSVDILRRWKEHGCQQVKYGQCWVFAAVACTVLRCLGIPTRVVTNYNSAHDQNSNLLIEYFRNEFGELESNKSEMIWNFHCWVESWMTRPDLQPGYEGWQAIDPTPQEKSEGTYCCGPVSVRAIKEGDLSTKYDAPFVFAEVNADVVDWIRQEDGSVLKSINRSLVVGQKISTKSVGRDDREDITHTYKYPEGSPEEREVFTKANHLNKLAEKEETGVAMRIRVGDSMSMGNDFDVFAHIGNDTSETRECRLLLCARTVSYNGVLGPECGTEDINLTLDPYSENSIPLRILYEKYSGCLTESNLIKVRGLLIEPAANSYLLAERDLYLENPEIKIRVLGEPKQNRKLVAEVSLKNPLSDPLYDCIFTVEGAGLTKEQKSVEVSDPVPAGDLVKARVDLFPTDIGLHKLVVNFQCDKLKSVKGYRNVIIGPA

B1: Rho GDP-dissociation inhibitor 1 (protein, UniProt Q99PT1 1-204)
chain: MAEQEPTAEQLAQIAAENEEDEHSVNYKPPAQKSIQEIQELDKDDESLRKYKEALLGRVAVSADPNVPNVIVTRLTLVCSTAPGPLELDLTGDLESFKKQSFVLKEGVEYRIKISFRVNREIVSGMKYIQHTYRKGVKIDKTDYMVGSYGPRAEEYEFLTPMEEAPKGMLARGSYNIKSRFTDDDKTDHLSWEWNLTIKKEWKD
B2: Cell adhesion molecule 2 (protein, UniProt Q8BLQ9 25-435)
chain: QFPLTQNVTVVEGGTAILTCRVDQNDNTSLQWSNPAQQTLYFDDKKALRDNRIELVRASWHELSISVSDVSLSDEGQYTCSLFTMPVKTSKAYLTVLGVPEKPQISGFSSPVMEGDLMQLTCKTSGSKPAADIRWFKNDKEIKDVKYLKEEDANRKTFTVSSTLDFRVDRSDDGVAVICRVDHESLNATPQVAMQVLEIHYTPSVKIIPSTPFPQEGQALTLTCESKGKPLPEPVLWTKDGAELPDPDRMVVSGRELNILFLNKTDNGTYRCEATNTIGQSSAEYVLIVHDVPNTLLPTTIIPSLTTAPVTTSVTITTSPSTSASSSSRRDPNSLAGQNGPDHALIGGIVAVVVFVTLCSIFLLGRYLARHKGTYLTNEAKGAEDAPDADTAIINAEGSQVNAEEKKEYFI
B3: Lysophosphatidylcholine acyltransferase 1 (protein, UniProt Q3TFD2 1-534)
chain: MRLRGRGPRAAPSSSSGAGDARRLAPPGRNPFVHELRLSALQKAQVAFMTLTLFPIRLLFAAFMMLLAWPFALLASLGPPDKEPEQPLALWRKVVDFLLKAIMRTMWFAGGFHRVAVKGRQALPTEAAILTLAPHSSYFDAIPVTMTMSSIVMKAESRDIPIWGTLIRYIRPVFVSRSDQDSRRKTVEEIKRRAQSNGKWPQIMIFPEGTCTNRTCLITFKPGAFIPGVPVQPVVLRYPNKLDTITWTWQGPGALKILWLTLCQFQNQVEIEFLPVYCPSEEEKRNPALYASNVRRVMAKALGVSVTDYTFEDCQLALAEGQLRLPADTCLLEFARLVRGLGLKPENLEKDLDKYSESARMKRGEKIRLPEFAAYLEVPVSDALEDMFSLFDESGGGEIDLREYVVALSVVCRPSQTLATIQLAFKMYGSPEDGSIDEANLSCILKTALGVSELTVTDLFQAIDQEDKGRITFDDFCGFAEMYPDYAEDYLYPDQTHFDSCAQTPPAPTPNGFCIDFSPENSDFGRKNSCKKAD
B4: Neuronal pentraxin-1 (protein, UniProt Q62443 23-432)
chain: QDFGPTRFICTSVPVDADMCAASVAAGGAEELRSNVLQLRETVLQQKETILSQKETIRELTTKLGRCESQSTLDSGPGEARSGGGRKQPGSGKNTMGDLSRTPAAETLSQLGQTLQSLKTRLENLEQYSRLNSSSQTNSLKDLLQSKIDDLERQVLSRVNTLEEGKGGPKNDTEERAKIESALTSLHQRISELEKGQKDNRPGDKFQLTFPLRTNYMYAKVKKSLPEMYAFTVCMWLKSSAAPGVGTPFSYAVPGQANELVLIEWGNNPMEILINDKVAKLPFVINDGKWHHICVTWTTRDGVWEAYQDGTQGGNGENLAPYHPIKPQGVLVLGQEQDTLGGGFDATQAFVGELAHFNIWDRKLTPGEVYNLATCSSKALSGNVIAWAESQIEIFGGATKWTFEACRQIN
B5: Protein LYRIC (protein, UniProt Q80WJ7 1-579)
chain: MAARSWQDELAQQAEEGSARLRELLSVGLGFLRTELGLDLGLEPKRYPGWVILVGTGALGLLLLFLLGYGWAAACAGARKKRRSPPRKREEAAPPTPAPDDLAQLKNLRSEEQKKKNRKKLPEKPKPNGRTVEVPEDEVVRNPRSITAKQAPETDKKNEKSKKNKKKSKSDAKAVQNSSRHDGKEVDEGAWETKISHREKRQQRKRDKVLTDSGSLDSTIPGIENIITVTTEQLTTASFPVGSKKNKGDSHLNVQVSNFKSGKGDSTLQVSSRLNENLTVNGGGWSEKSVKLSSQLSEEKWNSVPPASAGKRKTEPSAWTQDTGDTNANGKDWGRNWSDRSIFSGIGSTAEPVSQSTTSDYQWDVSRNQPYIDDEWSGLNGLSSADPSSDWNAPAEEWGNWVDEDRASLLKSQEPISNDQKVSDDDKEKGEGALPTGKSKKKKKKKKKQGEDNSHTQDTEDLEKDTREELPVNTSKARPKQEKACSLKTMSTSDPAEVLIKNSQPVKTLPPAISAEPSITLSKGDSDNSSSQVPPMLQDTDKPKSNAKQNSVPPSQTKSETNWESPKQIKKKKKARRET
B6: Protein disulfide-isomerase A6 (protein, UniProt Q922R8 20-440)
chain: LYSSSDDVIELTPSNFNREVIQSDGLWLVEFYAPWCGHCQRLTPEWKKAATALKDVVKVGAVNADKHQSLGGQYGVQGFPTIKIFGANKNKPEDYQGGRTGEAIVDAALSALRQLVKDRLGGRSGGYSSGKQGRGDSSSKKDVVELTDDTFDKNVLDSEDVWMVEFYAPWCGHCKNLEPEWAAAATEVKEQTKGKVKLAAVDATVNQVLASRYGIKGFPTIKIFQKGESPVDYDGGRTRSDIVSRALDLFSDNAPPPELLEIINEDIAKKTCEEHQLCVVAVLPHILDTGAAGRNSYLEVLLKLADKYKKKMWGWLWTEAGAQYELENALGIGGFGYPAMAAINARKMKFALLKGSFSEQGINEFLRELSFGRGSTAPVGGGSFPTITPREPWDGKDGELPVEDDIDLSDVELDDLEKDEL

Target: T1, Transglutaminase-2 (mouse (endogenous in mouse brain))
Assay: affinity purification with mass spectrometry; TG2 immunoprecipitated from total brain homogenates of 18-month-old WT and APP23 mice with anti-TG2 antibody IA12 crosslinked to protein A/G magnetic beads, 22 h at 4 °C; IP lysis buffer 25 mM Tris pH 7.4, 150 mM NaCl, 1 mM EDTA, 1% NP40, 5% glycerol; on-bead trypsin digest, SWATH MS; TG2−/− cohorts as background, z-test p ≤ 0.05, n = 5 per cohort

Binder | binding
B1 | binds
B2 | binds
B3 | binds
B4 | binds
B5 | binds
B6 | binds

Results are given in words; binding and its absence hold for the method and conditions named. Binding seen in cells or lysates may run through a third protein. These calls come from enrichment with a bait or labelling near it, and not all partners need be listed.
